Reference: PubChem BioAssay AID652272 (Drosophila RNAi Screening Center, 2013)

- Assay: 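Genes whose knock-down decreases or increases Hedgehog reporter output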 (primary screen)
- System: Drosophila clone 8 (Cl8) cells
- Reagent: long dsRNA against Drosophila genes
- Measurement: 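Plate reader light from a firefly reporter under a ptc promoter fragment that responds to Hedgehog, with Renilla light as transfection reference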
- Reading the numbers: firefly Hh reporter signal: higher = more ptc reporter light; Renilla reference signal: higher = more Renilla control light
- Rule for the call: 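Hit when the z-score averaged over two replicates is under -2 or over +3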
- Calls: active = hit: reporter lowered or raised; inactive = not a hit
The deposit covers about 21,000 reagents; shown is a random part of those with a known target gene and a result. In the full data, 503 (2.4%) are marked active. 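Raw plate light values, not normalised; calls rest on replicate z-scores that were not deposited; hits include reporter decreases as well as increases.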 The numbers tell different reagents against one gene apart. A plus sign joins genes that one reagent is predicted to hit. The record does not give: the amount of reagent, the time to read-out.

no.	Gene	reagent no.	firefly Hh reporter signal, replicate 1	firefly Hh reporter signal, replicate 2	firefly Hh reporter signal, replicate 3	Renilla reference signal, replicate 1	Renilla reference signal, replicate 2	call
1	CG8607	1	54323	42941		6413	3392	inactive
2	Gbeta76C (G protein beta subunit 76C)	1	1.26e5	1.26e5		5436	5490	inactive
3	CG6191	1	49798	33187		2076	1520	inactive
4	CG14974	1	78140	45088		2138	2960	inactive
5	CG10914	1	92445	54216		2700	4338	inactive
6	Mob3 (MOB kinase activator 3)	1	86710	73825		2363	6485	inactive
7	CG17612	1	1.10e5	1.23e5		4841	4540	inactive
8	CG32971	1	98666	1.99e5		2589	9445	inactive
9	Lpt (Lost PHDs of trr)	1	1.04e5	81764		1652	5797	inactive
10	Lpt (Lost PHDs of trr)	2	1.04e5	58778		4042	2087	inactive
11	GCC185 (GRIP and coiled-coil domain containing 185 kDa)	1	86758	1.02e5		3770	2637	inactive
12	CG5250	1	5.94e5	75244		31322	2061	inactive
13	CG12159	1	82445	35648		2065	3665	inactive
14	Dscam3 (Down syndrome cell adhesion molecule 3)	1	73677	89245		1909	2032	inactive
15	Dscam3 (Down syndrome cell adhesion molecule 3)	2	79892	96240		2332	2777	inactive
16	CG11779	1	1.07e5	45547		4384	1952	inactive
17	Rubicon	1	81304	2.34e5		2123	7456	inactive
18	lectin-28C	1	94642	43755		2576	4149	inactive
19	Ada2a + Polr2D	1	6.32e5	91977		32741	1576	inactive
20	egh (egghead)	1	66535	1.04e5		3142	4945	inactive
21	CG7142	1	5.99e5	86632		29461	2181	inactive
22	Pkcdelta (Protein kinase C delta)	1	1.20e5	3.84e5		5109	16315	inactive
23	Pkcdelta (Protein kinase C delta)	2	1.43e5	3.32e5		5229	13926	inactive
24	CG6928	1	1.19e5	51530		4187	2132	inactive

Limited to “Renilla reference signal, replicate 2” (3 entries from above):
CG32971: 9445
Lpt (Lost PHDs of trr) #1: 5797
Lpt (Lost PHDs of trr) #2: 2087

Further reagents follow:
no.	Gene	reagent no.	firefly Hh reporter signal, replicate 1	firefly Hh reporter signal, replicate 2	firefly Hh reporter signal, replicate 3	Renilla reference signal, replicate 1	Renilla reference signal, replicate 2	call
25	CG1910	1	1.09e5	89556		2504	2502	inactive
26	eIF2beta (eukaryotic translation initiation factor 2 subunit beta)	1	4152	37461	58032	3495	4797	inactive
27	Rev1 (DNA polymerase Rev1)	1	1.16e5	73786		4592	1801	inactive
28	CG7017	1	1.14e5	1.11e5		3809	3291	inactive
29	CG8950	1	1.09e5	91587		5137	3440	inactive
30	Lcp65APsi (pseudo)	1	1.17e5	2.27e5		2992	9336	inactive
31	Lcp65APsi (pseudo)	2	83044	59244		6455	5136	inactive
32	Pcp (Pupal cuticle protein)	1	1.64e5	83929		4632	7831	inactive
33	Mlf (Myelodysplasia/myeloid leukemia factor)	1	37383	20288		1100	1901	inactive
34	LManI (Lysosomal alpha-mannosidase I)	1	85386	53197		2628	5354	inactive
35	crm (cramped)	1	1.13e5	1.67e5		1728	4678	inactive
36	SC35 (SR family splicing factor SC35)	1	66010	24337		2332	3093	active
37	SC35 (SR family splicing factor SC35)	2	1.66e5	69898		4169	6081	inactive
38	Taf3 (TBP-associated factor 3)	1	82266	69077		2186	2306	inactive
39	Ppcs (Phosphopantothenoylcysteine synthetase)	1	1.27e5	67738		4946	2704	inactive
40	CG42260	1	1.01e5	68262		1824	5958	inactive
41	CG42260	2	90912	75504		1905	6721	inactive
42	CG10000	1	76118	1.09e5		3174	3312	inactive
43	CG31867	1	1.06e5	57548		3357	4995	inactive
44	RpL27 (Ribosomal protein L27)	1	2.09e5	43056		16203	2871	active
45	CG7857	1	1.00e5			3703	2429	inactive
46	twin	1	1.06e5	97672		5269	4176	inactive
47	twin	2	7.53e5	1.79e5		44663	5952	inactive
48	CG43996 + CG43997	1	66283	1.72e5		2096	6599	inactive
49	CG43996 + CG43997	2	64845	3.36e5		2405	12909	inactive
50	sigmar (salivary glands marred)	1	1.27e5	95540		4707	3332	inactive
51	Snmp1 (Sensory neuron membrane protein 1)	1	5.56e5	94076		27622	502	inactive
52	RpL26 (Ribosomal protein L26)	1	29408	46243		1837	3204	active
53	SelG (Selenoprotein G)	1	1.68e5	95301		3783	2240	inactive
54	CG7800	1	97362	1.47e5		3949	4237	inactive
55	ND-B8 (NADH dehydrogenase (ubiquinone) B8 subunit)	1	87883	59381		2253	6442	inactive
56	CG14780	1	78293	1.45e5		3125	5456	inactive
57	AANATL5 (Arylalkylamine N-acetyltransferase-like 5)	1	99549	88849		2665	6728	inactive
